Laboratory results as given in patent publication US6605431.
For at least one entry, the source does not settle the construct or the ends of the probe.

tested on: RNA polymerase holoenzyme (sigma70) (Escherichia coli); assay: SELEX; settings: 13 rounds; purified native protein

Selection result, selected:
GACCTCAGGAATTCCGCGGTCGACTGCAGTGGTACAAAAAACACTTGTCAGGCCGGAATAACTCCCTATAATGCGCCACC (double strand) [selected proximal SEQ 35]
GACCTCAGGAATTCCGCGGTCGACTGCAGTGGTAAAAAAAATACTTGTCAGGCCGGAATAACTCCCTATAATGCGCCACC (double strand) [selected proximal SEQ 36]
GACCTCAGGAATTCCGCGGTCGACTGCAGTGGTAAAAATAGTACTTGTCAGGCCGGAATAACTCCCTATAATGCGCCACC (double strand) [selected proximal SEQ 34]
GACCTCAGGAATTCCGCGGTCGACTGCAGTGGTAAAAAAAACACTTGTCAGGCCGGAATAACTCCCTATAATGCGCCACC (double strand) [selected proximal SEQ 30]
GACCTCAGGAATTCCGCGGTCGACTGCAGTGGTAAAAAAAATGCTTGTCAGGCCGGAATAACTCCCTATAATGCGCCACC (double strand) [selected proximal SEQ 31]
GACCTCAGGAATTCCGCGGTCGACTGCAGTGGTAAAAAAAGTGCTTGTCAGGCCGGAATAACTCCCTATAATGCGCCACC (double strand) [selected proximal SEQ 33]

same assay, conditions: in vivo more active than wild type; purified native protein

Selection result, selected:
GACGTCAGGAATTCCGCGGTCTGAAATATTTTTTTGAAAACCCCTTGTCAGGCCGGAATAACTCCCTATAATGCGCCACC (double strand) [selected UP SEQ 65]
GACGTCAGGAATTCCGCGGTCACAAAAATATTTTTCGAAACCCCTTGTCAGGCCGGAATAACTCCCTATAATGCGCCACC (double strand) [selected UP SEQ 55]
GACGTCAGGAATTCCGCGGTCTCAAAATTTTTTTTGCAAAGTACTTGTCAGGCCGGAATAACTCCCTATAATGCGCCACC (double strand) [selected UP SEQ 56]
GACGTCAGGAATTCCGCGGTCTGAATTTTTTTTTCGTCTACCCCTTGTCAGGCCGGAATAACTCCCTATAATGCGCCACC (double strand) [selected UP SEQ 57]
GACGTCAGGAATTCCGCGGTCTTAAATTTTTTTTCGTAAACCCCTTGTCAGGCCGGAATAACTCCCTATAATGCGCCACC (double strand) [selected UP SEQ 49]
GACGTCAGGAATTCCGCGGTCTAAACTATTTTTTCAAAAAGGACTTGTCAGGCCGGAATAACTCCCTATAATGCGCCACC (double strand) [selected UP SEQ 62]
GACGTCAGGAATTCCGCGGTCAAAAATATTTTTTCGAAAAGTACTTGTCAGGCCGGAATAACTCCCTATAATGCGCCACC (double strand) [selected UP SEQ 46]
GACGTCAGGAATTCCGCGGTCAGATTTTTTTTTTGTAAAAGTGCTTGTCAGGCCGGAATAACTCCCTATAATGCGCCACC (double strand) [selected UP SEQ 66]
GACGTCAGGAATTCCGCGGTCACAAAAATATTTTTCAAAACCCCTTGTCAGGCCGGAATAACTCCCTATAATGCGCCACC (double strand) [selected UP SEQ 48]
GACGTCAGGAATTCCGCGGTCGGAAATATTTTTTCATAAACCCCTTGTCAGGCCGGAATAACTCCCTATAATGCGCCACC (double strand) [selected UP SEQ 44]
GACGTCAGGAATTCCGCGGTCAGAAAAATATTTTTGAAAACTACTTGTCAGGCCGGAATAACTCCCTATAATGCGCCACC (double strand) [selected UP SEQ 58]
GACGTCAGGAATTCCGCGGTCGCAAAATTATTTTGCTAAAGTACTTGTCAGGCCGGAATAACTCCCTATAATGCGCCACC (double strand) [selected UP SEQ 69]
GACGTCAGGAATTCCGCGGTCTGAAATTTATTTTGCGAAAGGGCTTGTCAGGCCGGAATAACTCCCTATAATGCGCCACC (double strand) [selected UP SEQ 63]
GACGTCAGGAATTCCGCGGTCAGAAAAATATTTTCGAAAACTACTTGTCAGGCCGGAATAACTCCCTATAATGCGCCACC (double strand) [selected UP SEQ 45]
GACGTCAGGAATTCCGCGGTCCAAAAATATTTTTGAAAAAAGACTTGTCAGGCCGGAATAACTCCCTATAATGCGCCACC (double strand) [selected UP SEQ 43]

same assay, conditions: most active proximal subsite; set stimulates 82-170 fold in vivo; purified native protein

Selection result, selected:
GACCTCAGGAATTCCGCGGTCGACTGCAGTGGTAAAAAAAAGACTTGTCAGGCCGGAATAACTCCCTATAATGCGCCACC (double strand) [proximal subsite 4549]

same assay, conditions: purified native protein

Selection result, selected:
GACGTCAGGAATTCCGCGGTCGTATGATTTTTTTACTAGGAATCTTGTCAGGCCGGAATAACTCCCTATAATGCGCCACC (double strand) [selected distal SEQ 21]
GACGTCAGGAATTCCGCGGTCCCGGTTTTTTTTTACTAGGAATCTTGTCAGGCCGGAATAACTCCCTATAATGCGCCACC (double strand) [selected distal SEQ 15]
GACGTCAGGAATTCCGCGGTCTAAAAAATATTTTACTAGGAATCTTGTCAGGCCGGAATAACTCCCTATAATGCGCCACC (double strand) [selected distal SEQ 11]
GACGTCAGGAATTCCGCGGTCATATGTTTTTTTTACTAGGAATCTTGTCAGGCCGGAATAACTCCCTATAATGCGCCACC (double strand) [selected distal SEQ 18]
GACGTCAGGAATTCCGCGGTCTGTAATAATTTTTACTAGGAATCTTGTCAGGCCGGAATAACTCCCTATAATGCGCCACC (double strand) [selected distal SEQ 24]
GACGTCAGGAATTCCGCGGTCGCAAATATATTTTTCTAGGAATCTTGTCAGGCCGGAATAACTCCCTATAATGCGCCACC (double strand) [selected distal SEQ 23]
GACGTCAGGAATTCCGCGGTCGCATTTTTTTTTCACTAGGAATCTTGTCAGGCCGGAATAACTCCCTATAATGCGCCACC (double strand) [selected distal SEQ 7]
GACGTCAGGAATTCCGCGGTCAGATTTATTTTTCTCTAGGAATCTTGTCAGGCCGGAATAACTCCCTATAATGCGCCACC (double strand) [selected distal SEQ 19]
GACGTCAGGAATTCCGCGGTCAAAAATTTATTTTGCTAGGAATCTTGTCAGGCCGGAATAACTCCCTATAATGCGCCACC (double strand) [selected distal SEQ 13]

same assay, conditions: set stimulates 4-16 fold in vivo; purified native protein

Selection result, selected:
GACGTCAGGAATTCCGCGGTCAGAAAAATATTTTGCTAGGAATCTTGTCAGGCCGGAATAACTCCCTATAATGCGCCACC (double strand) [selected distal SEQ 6]
